From article PMC12143549 come the findings set out here.

No constants are given. Whether binding was seen depends on the method and setting. In cells and extracts the contact can be indirect. A result given as binding can be weak or reduced; the word gives no strength. Sequences can lack the tags named with a protein.

The experiment addresses HA-tagged PDCoV membrane (M) protein (pCAGGS-HA-M) (porcine deltacoronavirus (PDCoV)). Put plainly: co-IP; HEK-293T co-transfected with an HA-tagged and a Flag-tagged construct, 24 h; lysate precipitated with anti-HA antibody overnight at 4°C, protein A + G agarose; western blot; for SIRT5 and M also after FK866 (20 nM), NMN (100 µM) or both (FK866 reduced, NMN enhanced the interaction). For orientation: Immunoblotting shows a protein as a band on a membrane.

B1: Flag-tagged PEX12 (protein, UniProt F1S181 1-359)
chain: MAEHGAHITTASVVDDQPSIFEVVAQESLMTAVRPALQHVVKVLAESNPAHYGFFWRWFDEIFTVLDLLLQQHYLSKTSASFSENFYGLKRIVMGDTQKLQRLASAGLPKRQLWKSIMFLVLLPYLKVKLEKLVSSLREEDEYSIHPPSSRWKQFYRAFLAAYPFVNMAWEGWFLVQQLQYILGKAQHHSPLLSLAGVRLGRLTVHDIQALEHKPAEASMMQQPAGSIGEKIKSALKKAVGGVALSLSTGLSVGVFFLQFLEWWYSSENQETIKSLTALPTPPPPVHLDYNSDSPLLPKMKTVCPLCRKNRVNDTVLATSGYVFCYRCVFNYVRSHQACPITGYPTEVQHLIKLYSPEN
Consider B1, for which the binding entry is on record as “binds”.
